Laboratory results taken from PubChem BioAssay AID1347426 (Functional Genomics Laboratory (NCATS/FGL), 2020).
The whole screen tested about 31,000 sequences, of which about 1,400 (4.5%) were called active.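 How the source made its calls: active means median seed-adjusted z-score above 1 or below -1; inactive means the rest.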 This is one part of the list.

Assay: Novel Modifiers of Survival Motor Neuron (SMN) Protein: Gene Identification via Genome-wide siRNA Screen;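 further: luminescence tracks full-length SMN protein made from the SMN2 reporter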
Details: HEK293T SMN2-luciferase reporter, siRNA knockdown, 72 h; actives lie on both sides
Summary of the method: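 Steps: spot 1 pmol siRNA, add Lipofectamine RNAiMax in serum-free DMEM, seed HEK293T SMN2–luciferase reporter cells; incubate 72 h at 37 °C; add ONE-Glo; normalize luminescence to control siRNA, log10, MAD. Candidates: |MAD| > 1.0.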

Row | Sequence | median seed-adjusted z-score
1 | GAAUCUUAGUCAACAUGGATT against GRHL3 | inactive: -0.0434
2 | GCUUGAUAAUAAGCAUACATT against PPWD1 | inactive: -0.341
3 | GCAUUGAUGGUAACAUGCATT against KIF3A | inactive: 0.119
4 | GCUCUUACUUUGGAUAUCATT against MYO9A | inactive: -0.567
5 | CCAACUCCAUCAGUUCCAATT against PAX6 | inactive: -0.275
6 | GUGCUACCGCAGAACCAGATT against CACNG7 | inactive: -0.403
7 | GGAUAAUCAGUAGAAUUCUTT against AGMAT | inactive: -0.0269
8 | CGAAUAGCCUAUGAAGUCATT against AOC2 | inactive: 0
9 | CGGCUAGAAGAGGAACAGATT against LSG1 | active: 1.31
10 | GGAUGACUACAGGCAAGAATT against GPA33 | inactive: 0.138
11 | GCCUGACUCUAAUAUCCGATT against LBP | inactive: -0.207
12 | GCUUUUGCAGGAGAAUGAATT against FGL1 | inactive: -0.259
13 | GUUGACUACUUACACCUCATT against POLG | inactive: 0
14 | GGUUUGCGUUCAGCAUUUATT against PPP3R2 | inactive: -0.143
15 | CCAGAAUCACUAGAGCUGATT against MADD | inactive: 0.363
16 | CAGCUAUCAUGGUGAACUUTT against NDUFB1 | inactive: 0
17 | GGUUCAGCUUUAUCUAUAUTT against RNF145 | inactive: -0.554
18 | AGCUUCAUCUCAGAGCCUATT against SLC7A10 | inactive: -0.732
19 | CACUGUAACGACUUCCUUATT against CCIN | inactive: 0.0472
20 | GGUGCUAACUUUGAGUACATT against ECHS1 | inactive: 0.0273
21 | GGAUCUCAUGCACAUCUCATT against PLA2G6 | inactive: -0.123
22 | GUGGAGAUGUCAACACCUATT against ZNF526 | inactive: 0.0265

Row | Sequence | median seed-adjusted z-score
23 | GCAUAUUCCACUAUCCUAUTT against LNPEP | inactive: -0.386
24 | CAAAGAUGCAGCUAACCUATT against KLC1 | inactive: -0.0912
25 | CAAAAUAUGCAGUUGAAAATT against SDR16C5 | inactive: -0.0558
26 | UCAUAUGUCUGGUAAUGCUTT against AMY2B | inactive: -0.564
27 | CGCUCACGCUCGUCAUGUUTT against KCNK3 | inactive: 0
28 | CAGAGGAACUGACACCAUUTT against ETFA | inactive: -0.0619
29 | GAAAUCAUGUCUCAAUAUATT against PPP1R3C | inactive: 0
30 | GGAAGAUUGUGCACCGUGATT against SIK2 | inactive: 0.055
31 | GGGCAUCAGUGCUAAUGGATT against PBX1 | inactive: -0.199
32 | GCGACUACAAGGACAAGUATT against SPAG7 | inactive: 0.263
33 | GCGCAAUACAUGCAAGAUATT against USP47 | inactive: 0.3
34 | GGUUAGUCAUAAAGAUGUATT against CAPZA1 | inactive: -0.0237
35 | GGCCUUCGGCUAAAAGAGATT against KIF22 | inactive: 0.283
36 | GCCUGAACUUUUCCGAUUATT against RFC4 | inactive: -0.386
37 | GGAGAUCACUGAUGAGUGUTT against MAPK8IP1 | inactive: 0.576
38 | GCUUUUCCCGGUCAGAUCATT against KLF12 | inactive: -0.0892
39 | UCAAGGAGCUCAUACAGGATT against SLC16A3 | inactive: -0.353
40 | CUUCUAUGGUGUUUCGAAATT against TDRD7 | inactive: 0.11
41 | GCCUCAAUGUGGAUAUGGATT against SYTL4 | inactive: 0.694
42 | GGAUAUUAUUCAGUGGAGATT against PPP2CB | inactive: 0.486
43 | AAGCAGAUACUAAAGGUUUTT against PLAGL1 | inactive: 0.0885
44 | GGAGAGGAGUUAUCAGGAATT against GBP1 | inactive: -0.232

Row | Sequence | median seed-adjusted z-score
45 | CUUACUAACCAUAAAGUAATT against ZNF680 | inactive: 0.142
46 | GUCUCUGACGGGUCCAUUATT against BMP1 | inactive: -0.298
47 | CGUUAACUGCAGACGUAAATT against KIF18A | inactive: -0.159
48 | UGCUUAUGAUCAACAUUUATT against LSM3 | active: -1.36
49 | GGCUGACAGUAGCUAAGCUTT against RAPGEF4 | inactive: -0.197
50 | ACAGUGUAUUCAAACAGUATT against NGF | inactive: -0.325
51 | CAAGGACAACUCAAACUUATT against PRKACA | inactive: -0.137
52 | GAGAUUGACAAGACCGUGATT against DUS1L | inactive: 0.0698
53 | GGCUAUGACUACAAGGUGATT against CORO2A | inactive: 0
54 | GGACUGAUCAUGAACCUCUTT against CPEB3 | inactive: 0.086
55 | GGAUGUCACUACUGACUGUTT against PPM1J | inactive: -0.901
56 | CCAUGAUAGUGACGAGGCATT against DCTD | inactive: 0
57 | GGUUUCUAGUGGUAAUAGATT against ARSF | inactive: 0.111
58 | GAAGGAUUCUGAUGUCUUATT against MRGPRX2 | inactive: 0.0476
59 | AGAUCAACCCAGAUAACUATT against INCENP | inactive: -0.339
60 | CAGACUUAUUGUAACAAGATT against ENPP3 | inactive: 0.66
61 | CAUACACCAUGGAGGUAGATT against MYO5B | inactive: -0.212
62 | GAAUCGUUACUCUAAAGGATT against CLCN2 | inactive: -0.0786
63 | CAAAUACACCGGACGUGAUTT against S100A7A | inactive: 0.212
64 | GACUCUGAAAUCAACCUUATT against TREM1 | inactive: 0
65 | GAGUCCGUCUUUUGAAUAATT against RBP4 | inactive: 0.0208
66 | ACAACGACAUUGACUACUATT against GALNT9 | inactive: 0.787

Some of the entries so far, tab-delimited:
Row	Sequence	median seed-adjusted z-score
42	GGAUAUUAUUCAGUGGAGATT against PPP2CB	inactive: 0.486
43	AAGCAGAUACUAAAGGUUUTT against PLAGL1	inactive: 0.0885
44	GGAGAGGAGUUAUCAGGAATT against GBP1	inactive: -0.232
45	CUUACUAACCAUAAAGUAATT against ZNF680	inactive: 0.142
46	GUCUCUGACGGGUCCAUUATT against BMP1	inactive: -0.298
47	CGUUAACUGCAGACGUAAATT against KIF18A	inactive: -0.159
48	UGCUUAUGAUCAACAUUUATT against LSM3	active: -1.36

Additional entries.

Row | Sequence | median seed-adjusted z-score
67 | AGCGAGUGAUGAUCCCUGUTT against DNAJA3 | inactive: -0.0333
68 | GAGACAAAGUUCAAAAUGATT against RNASE12 | inactive: -0.16
69 | GGCUCGAUUUUAUUCUCCATT against KATNA1 | inactive: -0.471
70 | CUACGUAAAAGAUCGGGUATT against GDI2 | inactive: -0.161
71 | GAGUGACUGUAGAUCAGGATT against ZSCAN29 | inactive: 0.193
72 | CGAUUCCGCUACUACCAUUTT against SLC12A6 | inactive: 0.155
73 | GAGUAUAAGCAUAACGAAATT against MASTL | inactive: -0.195
74 | GCAGAUUGGGAACCUAUUUTT against SLC43A3 | inactive: 0.431
75 | UGAUGUCUCUGAGAUCCAATT against SLC25A23 | inactive: 0.325
76 | CCUCAUGUCUCAGACUAUATT against MAP3K2 | inactive: 0
77 | ACACUCUUGUGGUCAAGAATT against HNRNPC | active: -2.15
78 | GCAGAGCGUGCACCAAUGATT against S100A3 | inactive: -0.176
79 | GCAACGUGCUGCACCAAAATT against AIM2 | inactive: 0.0646
80 | CCUCCUCAGAUGAUUCAAATT against ZDHHC5 | inactive: -0.307
81 | AGAAUGAGCCCGAACCAGATT against BRSK2 | inactive: -0.12
82 | GAGCUACAGAUGACCAGGATT against PRODH | inactive: 0.497
83 | CACUGUUUCUUCACCGGCATT against ZDHHC22 | inactive: 0.00446
84 | CUGUAGAUCUUUGUCAAAATT against DUS4L | inactive: 0.525
85 | AGUGGGCCUUUAAUCUCUATT against KCNIP3 | inactive: 0.283
86 | GGAACUAAGUGACCUCCGATT against ZNFX1 | inactive: -0.368
87 | UCGUCAAGGUGGACCUAAATT against AURKB | inactive: 0.0901
88 | GCGCAAGCUUAAGAACUUUTT against PRPF19 | inactive: -0.485

Row | Sequence | median seed-adjusted z-score
89 | CCUCCUUAAGUAUCCAUAUTT against ZNF699 | inactive: -0.428
90 | GGAUUUAUAUCAAUGUCUUTT against SLC17A3 | inactive: -0.296
91 | CAGAUCUUGUUGCUAACUATT against EDIL3 | inactive: 0
92 | GGCUUCAUAUCUAGACUAATT against APOBEC3A | inactive: 0.467
93 | GUACUCUAGUAAUGGAAUATT against A4GNT | inactive: 0.213
94 | GGGACAAGAUGUUACAUCATT against UCHL3 | inactive: 0.378
95 | AGAUGUUUAUCUAACCUGATT against MRGPRX3 | inactive: -0.175
96 | GAGCAGGAGUUAAGCCCAATT against ELN | inactive: -0.149
97 | GCUUUGGUGGAUCACCUCATT against BLOC1S1 | inactive: 0.0692
98 | GCUUAUUGCUCAAUCCACATT against ZNHIT3 | inactive: -0.311
99 | GAAGAAUUCAGAUCUAUAATT against PRDX4 | inactive: -0.188
100 | GGAAGAGUCUCUCAACGGATT against ABCC11 | inactive: 0.322
101 | GACUUUGCAUUUCCUAGUATT against HSPA1A | inactive: -0.833
102 | GUGGGAAAAAUGUAGGAGATT against LTB | inactive: 0.646
103 | GGAUCUUCCUACUCGACUATT against THADA | inactive: 0.00995
104 | CUCAUUGCCUUUUCACAGATT against UGT1A1 | inactive: -0.0283
105 | GGACCGUGUUCUUUACGUATT against NDUFAB1 | inactive: -0.282
106 | GGAUAAUGUCUUAUGUAAUTT against PNPLA3 | inactive: -0.0642
107 | GGAAGAUGUUGACAUAUUUTT against ACAT2 | active: 1.25
